Experimental data as given in article PMC7409549, “A time-resolved interaction analysis of Bem1 reconstructs the flow of Cdc42 during polar growth” (Life Science Alliance, 2020).
No constants are given. Whether binding was seen depends on the method and setting. In cells and extracts the contact can be indirect. For part of these data: A result given as binding can be weak or reduced; the word gives no strength.

B1: Nub-Boi1 (protein, UniProt P38041 1-980)
chain: MSLEGNTLGKGAKSFPLYIAVNQYSKRMEDELNMKPGDKIKVITDDGEYNDGWYYGRNLRTKEEGLYPAVFTKRIAIEKPENLHKSPTQESGNSGVKYGNLNDSASNIGKVSSHQQENRYTSLKSTMSDIDKALEELRSGSVEQEVSKSPTRVPEVSTPQLQDEQTLIQEKTRNEENTTHDSLFSSTADLNLSSESLKNISKSNISTKSLEPSSESVRQLDLKMAKSWSPEEVTDYFSLVGFDQSTCNKFKEHQVSGKILLELELEHLKELEINSFGIRFQIFKEIRNIKSAIDSSSNKLDADYSTFAFENQAAQLMPAATVNRDEIQQQISSKCNKLSSESSDRKSSSVTTELQRPSSVVVNPNFKLHDPAEQILDMTEVPNLFADKDIFESPGRAPKPPSYPSPVQPPQSPSFNNRYTNNNARFPPQTTYPPKNKNPTVYSNGLIPNSSTSSDNSTGKFKFPAMNGHDSNSRKTTLTSATIPSINTVNTDESLPAISNISSNATSHHPNRNSVVYNNHKRTESGSSFVDLFNRISMLSPVKSSFDEEETKQPSKASRAVFDSARRKSSYGHSRDASLSEMKKHRRNSSILSFFSSKSQSNPTSPTKQTFTIDPAKMTSHSRSQSNSYSHARSQSYSHSRKHSLVTSPLKTSLSPINSKSNIALAHSETPTSSNNKEAVSQPSEGKHKHKHKHKSKHKHKNSSSKDGSSEEKSKKKLFSSTKESFVGSKEFKRSPSELTQKSTKSILPRSNAKKQQTSAFTEGIRSITAKESMQTADCSGWMSKKGTGAMGTWKQRFFTLHGTRLSYFTNTNDEKERGLIDITAHRVLPASDDDRLISLYAASLGKGKYCFKLVPPQPGSKKGLTFTEPRVHYFAVENKSEMKAWLSAIIKATIDIDTSVPVISSYATPTIPLSKAQTLLEEARLQTQLRDAEEEEGRDQFGWDDTQNKRNSNYPIEQDQFETSDYLESSAFEYPGGRL
B2: Nub-Nba1 (protein, UniProt Q08229 1-501)
chain: MSEEREENGISRATLNTQRLSAMIDSLNNEKDDRLFPSPTTTRTMITEEKADQSDVFKPPSRLLRSPAGDVSLPPGDNRSSMISNYSGIIQEGVEVSYVVKNRQQTQERRTSKDSNSLYSLKEPVSKNELPSLPMLPSEATLTKHLSDNQSTKSNTNADEIVIKPVTNAKPVGRFNSNTSKKVEGRGSLKLLSSPLRQEKVMRSSIGSGNLASESGSSTYNTKFHQSIQEQLEEEEEGNVSDKLSIVSSVIPELYTTTNEAPKAINPIRSETNDYNPTIPPRSKDRPRSRLFIEEGDGEGDLLTEEILPTPVQPGGHYKNSSQISTVSEQKSESYYSAATSMPPEEETYLTRPLPSTPNEDSRVTSNLKRDDTLKAIHDRANHTSTSTNKQDDDMYEDIIEETPKKTKLKKDTKKKLNKKKSVKELRSFDIDTLNQLLSVTKGTLIGSEFAQLGMKIEEKRALERLVDSLSRLTADMVLDPDRYEEGLKRLDKATKALEGF

What was measured:
Epo1CCG (S. cerevisiae) [1] = assay: split reporter; SPLIFF as a9, measured at the bud neck from completion of acto-myosin ring contraction until abscission (PCDIII)
Epo1CCG (S. cerevisiae) [2] = assay: split reporter; SPLIFF as a9, measured at the cell front during bud site assembly and bud growth (PCDII)
[3] = target: Gps1_(536-758)CRU (S. cerevisiae); assay: split reporter; split-ubiquitin (Split-Ub): CRU and Nub fusions co-expressed in yeast cells, spotted in 10-fold serial dilutions on medium with 1 mg/ml 5-FOA and copper, 30°C; growth = interaction

| Binder | binding (Epo1CCG (S. cerevisiae) [1]) | binding (Epo1CCG (S. cerevisiae) [2]) | binding [3] |
| --- | --- | --- | --- |
| B1 | no binding (only during PCDIII (bud neck)) | binds |  |
| B2 |  |  | binds |
